Measurements taken from PubChem BioAssay AID445 (National Center for Advancing Translational Sciences (NCATS), 2006).
The other results are listed elsewhere or left out. The main result of the screen is listed elsewhere. These columns were measured beside it and carry no call. The list favours compounds with an active or inconclusive main result. The note in brackets gives the kind of curve behind each potency; many fits are weak.

Experiment: IkB Signaling
Settings: ABC-DLBCL IkBa-CBG/CBR dual luciferase ratio (green luciferase fused to IkBa over red control in OCI-Ly3 lymphoma cells), 4 h; measured here: control luc red channel unless noted
Method in brief: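 In this assay, an IκBα–CBG68 fusion accumulates when IKK-driven degradation is blocked; native CBR normalizes for cell number. OCI-Ly3 cells were treated 4 h with compound and doxycycline, then green and red light read after Chroma-Glo addition.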

Row | SMILES | AC50
1 | CCc1nnc2c(Nc3ccc(Br)c(C)c3)nc3ccccc3n12 | 0.631 µM [rising, full curve]
2 | CCn1nc(C)c(Oc2ccccc2O)c1C | 200 nM [rising, partial curve, poor fit] [measured here: IkB-luc green channel]
3 | Cc1ccc(-n2ncc(-c3nnc(SCC(=O)NC4CCCC4)o3)c2N)cc1C | 31.6 µM [falling, single point]
4 | CCCNC(=O)c1ccc2c(c1)N(Cc1cccc(C)c1)C(=O)c1ccccc1S2 | 39.8 µM [falling, partial curve]
5 | CCCCCCCC/C=C\CCCCCCCC(=O)N[C@@H](CO)Cc1ccc(O)cc1 | 12.6 µM [falling, full curve, poor fit]
6 | N=C(N)SCc1cccc(-c2nc3ccccc3c(=O)o2)c1 | 3.16 µM [falling, single point]
7 | CCc1ccccc1NC(=O)c1cc(S(=O)(=O)N(CC)c2ccccc2)ccc1F | 20 µM [falling, partial curve]
8 | CCc1nnc(NC(=O)CN2CCN(c3nc(-c4ccccc4)cs3)CC2)s1 | 31.6 µM [falling, single point]
9 | COc1ccccc1-n1cnnc1SCC(=O)Nc1cc(C(C)(C)C)nn1-c1ccccc1 | 5.01 µM [falling, partial curve]
10 | Cc1cc(-c2ccccc2)n(-c2ccc(C(=O)N3CCN(c4ncccn4)CC3)cc2)n1 | 3.98 µM [falling, full curve, poor fit]
11 | O=C(CC1N=C2c3ccccc3N=C(SCC(=O)Nc3cccc(C(F)(F)F)c3)N2C1=O)NCc1cccs1 (stereo not given) | 12.6 µM [falling, partial curve]
12 | O=C(Nc1cccc(Cl)c1)c1ccc2c(=O)n3c(nc2c1)CCCCC3 | 7.94 µM [falling, partial curve]
13 | CCc1ccc(CN(Cc2ccco2)C(=O)c2ccccc2Cl)cc1 | 15.8 µM [falling, partial curve]
14 | Cc1cc(C)c(C)c(S(=O)(=O)Nc2ccc(O)cc2)c1C | 12.6 µM [falling, partial curve]
15 | Cc1ccc(C(=O)Nc2nnc(S(=O)(=O)N3CCOCC3)s2)cc1 | 2 µM [rising, partial curve]
16 | COC(=O)c1sc(-c2ccccc2)cc1NC(=O)c1cccc(F)c1 | 12.6 µM [falling, partial curve]
17 | O=C(CCNS(=O)(=O)c1cccc2nonc12)N1CCN(c2cccc(Cl)c2)CC1 | 31.6 µM [falling, partial curve]
18 | O=C(NCc1ccc(F)cc1)C1CCN(C(=O)c2ccc(-n3ccc4ccccc43)s2)CC1 | 10 µM [falling, partial curve]
19 | COc1cccc(CNC(=O)c2c(C)nn(-c3cccc(C)c3)c2-n2cccc2)c1 | 20 µM [falling, partial curve]
20 | O=C(NCCCc1ccccc1)c1nn(-c2ccccc2F)nc1CO | 25.1 µM [falling, single point]

Row | SMILES | AC50
21 | COc1ccc2nc3c(cc2c1)c(NC(=O)c1cccs1)nn3CC(C)C | 2 µM [falling, full curve]
22 | Cc1cccc2cc(CN(Cc3nnnn3Cc3ccccc3)C3CCCC3)c(=O)[nH]c12 | 10 µM [falling, partial curve]
23 | Cc1cc(C)cc(-n2cnc3cc(C(=O)NCCc4ccccc4)ccc32)c1 | 25.1 µM [falling, single point]
24 | CCOC(=O)c1c(Oc2ccc(C(=O)OC)cc2)nnc(-c2ccccc2)c1-c1ccccc1 | 12.6 µM [falling, partial curve]
25 | CCN(C(=O)Cn1c(C(=O)OC)cc2oc3ccccc3c21)c1cccc(C)c1 | 10 µM [falling, partial curve]
26 | CCOC(=O)C1CCN(C(=O)c2oc3ccc(S(=O)(=O)N4CCCCCC4)cc3c2C)CC1 | 10 µM [falling, partial curve]
27 | O=C(c1cccc(Cl)c1)n1nc(-c2ccco2)nc1NCc1cccs1 | 25.1 µM [falling, single point]
28 | Cc1cccc(NC(=O)c2cc(S(=O)(=O)N3CCCCC3)c[nH]2)c1C | 0.126 µM [falling, full curve]
29 | Cc1cccc(Cn2c(SCc3ccc(C(=O)N4CCCCCC4)cc3)nc3ccncc32)c1 | 25.1 µM [falling, partial curve]
30 | Cc1cccc2cc(CN(Cc3nnnn3Cc3ccco3)C3CCCC3)c3nnnn3c12 | 15.8 µM [falling, partial curve]
31 | CCc1ccc(-n2nnc(-c3nc(-c4ccccc4)no3)c2C)cc1 | 2.51 µM [falling, full curve]
32 | COc1ccc(CCNC(=O)c2ccc3c(c2)N(Cc2cccc(C)c2)C(=O)c2ccccc2S3(=O)=O)cc1OC | 1.26 µM [rising, full curve]
33 | CCOc1ccccc1-c1nc(-c2ccc(-c3ccccc3)nc2OCC)no1 | 7.94 µM [falling, partial curve]
34 | COc1ccccc1NC(=O)CSc1nnc(-c2cccc(Cl)c2)o1 | 6.31 µM [falling, partial curve]
35 | COc1ccccc1Nc1c2c(nc3ccc(NC(=O)/C=C/c4cccc(OC)c4OC)cc13)CCCC2 | 12.6 µM [falling, partial curve]
36 | COc1ccc2nc(N(Cc3cccnc3)C(=O)CCc3ccccc3)sc2c1 | 39.8 µM [falling, single point]
37 | CCCCC12CN3CC(C)(CN(C1)C3c1cc(Br)ccc1O)C2=O (stereo not given) | 31.6 µM [falling, single point]
38 | CC(=O)c1cc(-c2ccc(F)cc2)n(CCC(=O)NCc2ccccc2C)c1C | 39.8 µM [falling, single point]
39 | Cc1ccc(-c2nc3scc(CCNC(=O)c4cccc(Br)c4)n3n2)cc1 | 0.501 µM [rising, full curve]
40 | COc1ccccc1NC(=O)C1CCCN(c2nnc(C)c3c(C)n(-c4ccccc4)nc23)C1 (stereo not given) | 10 µM [falling, partial curve]

Compounds 36–38 of the list above:
Row | SMILES | AC50
36 | COc1ccc2nc(N(Cc3cccnc3)C(=O)CCc3ccccc3)sc2c1 | 39.8 µM [falling, single point]
37 | CCCCC12CN3CC(C)(CN(C1)C3c1cc(Br)ccc1O)C2=O (stereo not given) | 31.6 µM [falling, single point]
38 | CC(=O)c1cc(-c2ccc(F)cc2)n(CCC(=O)NCc2ccccc2C)c1C | 39.8 µM [falling, single point]
